Measurements published in patent US5776944A, “7-(4-aminomethyl-3-methyloxyiminopyrroplidin-1-yl)-1-cyclopropyl-6-flu oro-4-oxo-1,4-dihydro-1,8-naphthyridine-3-carboxylic acid and the process for the preparation thereof” (LG Chemical Ltd., priority 1994, dated 1998).

Assay: Pharmacokinetic test
Details: rat, in vivo, 20 mg/kg, PO, SD rats (male)

`O=C(O)c1cn(C2CC2)c2cc(N3CCNCC3)c(F)cc2c1=O` [CFLX, ciprofloxacin, reference compound] showed a Cmax (read-out: Cmax (maximum blood concentration)) of 1340 ± 368 ng/mL and a Tmax (read-out: Tmax (time showing maximum blood concentration)) of 1.13 ± 0.605 h.
